Experimental data: article PMC7705682
No constants are given. Whether binding was seen depends on the method and setting. In cells and extracts the contact can be indirect. Some binding calls cover weakened binding; strength is not graded here. Tags and fused reporters may be left off the sequences shown.

By UniProt entry, the sequences of proteins in these tests, tags left out.
UniProt P40763: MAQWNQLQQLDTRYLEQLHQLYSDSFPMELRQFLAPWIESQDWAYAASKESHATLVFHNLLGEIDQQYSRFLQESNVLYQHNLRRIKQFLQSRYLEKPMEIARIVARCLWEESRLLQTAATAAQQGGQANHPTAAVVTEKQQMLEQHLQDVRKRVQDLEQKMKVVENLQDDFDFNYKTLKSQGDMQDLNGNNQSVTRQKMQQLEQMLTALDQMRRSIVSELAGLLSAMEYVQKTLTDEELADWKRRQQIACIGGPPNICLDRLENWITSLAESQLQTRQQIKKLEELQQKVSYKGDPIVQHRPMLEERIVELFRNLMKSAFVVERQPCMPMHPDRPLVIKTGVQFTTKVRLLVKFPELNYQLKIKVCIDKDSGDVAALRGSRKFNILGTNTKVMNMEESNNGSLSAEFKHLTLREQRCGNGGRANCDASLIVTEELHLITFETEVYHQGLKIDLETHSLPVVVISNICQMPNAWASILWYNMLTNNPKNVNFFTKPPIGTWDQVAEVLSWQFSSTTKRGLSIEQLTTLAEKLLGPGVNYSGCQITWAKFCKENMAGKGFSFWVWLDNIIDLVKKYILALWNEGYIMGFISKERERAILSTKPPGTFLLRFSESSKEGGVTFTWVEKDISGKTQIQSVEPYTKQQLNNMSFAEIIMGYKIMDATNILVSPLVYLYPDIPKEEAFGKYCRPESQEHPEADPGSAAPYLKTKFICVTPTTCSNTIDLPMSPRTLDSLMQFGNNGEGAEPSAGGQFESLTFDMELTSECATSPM

Molecular target: T1, SH2D4A-HA-LN151 (Src homology 2 domain-containing 4A, BiFC fusion) (UniProt Q9H788)
T1 sequence: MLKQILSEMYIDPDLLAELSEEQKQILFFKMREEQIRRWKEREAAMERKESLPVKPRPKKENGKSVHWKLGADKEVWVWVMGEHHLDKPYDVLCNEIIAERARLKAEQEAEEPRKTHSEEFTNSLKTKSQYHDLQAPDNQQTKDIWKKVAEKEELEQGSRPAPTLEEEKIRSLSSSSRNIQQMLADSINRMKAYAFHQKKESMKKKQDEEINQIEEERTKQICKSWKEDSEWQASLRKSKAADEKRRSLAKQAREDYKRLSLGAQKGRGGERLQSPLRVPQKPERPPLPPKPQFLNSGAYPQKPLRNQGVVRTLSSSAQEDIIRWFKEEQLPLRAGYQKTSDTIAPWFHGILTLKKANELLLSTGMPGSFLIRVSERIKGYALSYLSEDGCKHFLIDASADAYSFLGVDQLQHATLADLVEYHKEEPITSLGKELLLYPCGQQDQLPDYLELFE
Test: split reporter; BiFC with mLumin fragments LN151 and LC151 in transfected HuH1 cells, live-cell imaging (ex 588 nm, em 623 nm), before and after stimulation with IL-6 (20 ng/ml)

binding: binds
Substance: STAT3wt-myc-LC151 (Signal Transducer and Activator of Transcription 3, BiFC fusion) (from UniProt P40763 1-770)
